Consider 2 molecules from patent publication US20200165344A1.

Sequences of proteins named here, by UniProt entry; tags and fusion partners are left off.
UniProt P26718: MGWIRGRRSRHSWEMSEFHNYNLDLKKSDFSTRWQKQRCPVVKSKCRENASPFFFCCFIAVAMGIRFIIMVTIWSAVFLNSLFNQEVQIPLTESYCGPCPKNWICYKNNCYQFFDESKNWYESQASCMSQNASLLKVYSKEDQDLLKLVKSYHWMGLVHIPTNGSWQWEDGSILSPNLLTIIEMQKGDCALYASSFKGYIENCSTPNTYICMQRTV

These are yes or no findings as the source states them, for the method shown. Some binding calls cover weakened binding; strength is not graded here.

This experiment addresses human NKG2D expressed on EL4 cells (human) (UniProt P26718). Put plainly: flow cytometry on EL4 cells expressing human NKG2D. For orientation: In flow cytometry, cells or beads pass a laser one at a time.

B1: A49-TriNKET-FLT3-IMCEB10 (bispecific antibody, V domains shown)
VH 1: EVQLVESGGGLVKPGGSLRLSCAASGFTFSSYSMNWVRQAPGKGLEWVSSISSSSSYIYYADSVKGRFTISRDNAKNSLYLQMNSLRAEDTAVYYCARGAPMGAAAGWFDPWGQGTLVTVSS
VL 1: DIQMTQSPSSVSASVGDRVTITCRASQGISSWLAWYQQKPGKAPKLLIYAASSLQSGVPSRFSGSGSGTDFTLTISSLQPEDFATYYCQQGVSFPRTFGGGTKVEIK
VH 2: EVQLVQSGAEVKKPGASVKVSCKASGYTFTSYYMHWVRQAPGQGLEWMGIINPSGGSTSYAQKFQGRVTMTRDTSTSTVYMELSSLRSEDTAVYYCARGVGAHDAFDIWGQGTTVTVSSA
VL 2: DVVMTQSPLSLPVTPGEPASISCRSSQSLLHSNGNNYLDWYLQKPGQSPQLLIYLGSNRASGVPDRFSGSGSDTDFTLQISRVEAEDVGVYYCMQGTHPAISFGQGTRLEIKR
As for B1, the binding result is recorded as “binds”.

B2: A49-TriNKET-FLT3-4G8 (bispecific antibody, V domains shown)
VH 1: EVQLVESGGGLVKPGGSLRLSCAASGFTFSSYSMNWVRQAPGKGLEWVSSISSSSSYIYYADSVKGRFTISRDNAKNSLYLQMNSLRAEDTAVYYCARGAPMGAAAGWFDPWGQGTLVTVSS
VL 1: DIQMTQSPSSVSASVGDRVTITCRASQGISSWLAWYQQKPGKAPKLLIYAASSLQSGVPSRFSGSGSGTDFTLTISSLQPEDFATYYCQQGVSFPRTFGGGTKVEIK
VH 2: QVQLQQPGAELVKPGASLKLSCKSSGYTFTSYWMHWVRQRPGHGLEWIGEIDPSDSYKDYNQKFKDKATLTVDRSSNTAYMHLSSLTSDDSAVYYCARAITTTPFDFWGQGTTLTVSS
VL 2: DIVLTQSPATLSVTPGDSVSLSCRASQSISNNLHWYQQKSHESPRLLIKYASQSISGIPSRFSGSGSGTDFTLSINSVETEDFGVYFCQQSNTWPYTFGGGTKLEIKR
On to B2, for which the binding entry is “binds”.
